This passage reports binding results from publication PMC6588547.

No constants are given. Whether binding was seen depends on the method and setting. For some of these results: Binding calls can cover weak binding; strength is not graded here. Tags and fused reporters may be left off the sequences shown.

Common to all, as to assay: two-hybrid; SLR1 and its truncations fused with GAL4 BD (pGBKT7), MOC1 and its truncations fused with GAL4 AD (pGADT7); tested on SD/-Trp/-Leu/-His/-Ade/X-α-Gal medium
Experiment [1] deals with T1, SLENDER RICE 1 (SLR1), full length, fused with GAL4 BD (rice (Oryza sativa L. spp. Japonica)) (UniProt Q7G7J6).
T1 sequence: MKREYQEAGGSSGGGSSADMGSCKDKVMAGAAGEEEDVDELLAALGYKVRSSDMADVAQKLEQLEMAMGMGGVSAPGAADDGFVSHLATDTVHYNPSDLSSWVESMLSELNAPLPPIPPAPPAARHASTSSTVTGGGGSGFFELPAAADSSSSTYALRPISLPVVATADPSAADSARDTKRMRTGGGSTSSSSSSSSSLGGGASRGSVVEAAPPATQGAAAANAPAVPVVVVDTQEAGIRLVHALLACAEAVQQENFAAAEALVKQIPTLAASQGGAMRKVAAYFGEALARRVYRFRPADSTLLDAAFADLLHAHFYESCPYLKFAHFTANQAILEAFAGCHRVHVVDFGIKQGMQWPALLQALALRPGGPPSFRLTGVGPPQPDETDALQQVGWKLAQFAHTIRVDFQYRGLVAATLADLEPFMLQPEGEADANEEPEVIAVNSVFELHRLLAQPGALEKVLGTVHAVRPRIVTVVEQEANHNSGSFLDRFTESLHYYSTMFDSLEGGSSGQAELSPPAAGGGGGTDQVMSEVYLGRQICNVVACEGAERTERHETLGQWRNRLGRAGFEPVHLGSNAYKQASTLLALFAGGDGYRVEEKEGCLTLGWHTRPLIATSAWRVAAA

Experiment [2] addresses SLR1 with the entire GRAS domain deleted, fused with GAL4 BD (rice (Oryza sativa L. spp. Japonica)).
For experiment [3], the target named is SLR1 truncation lacking the TVHYNP motif, fused with GAL4 BD (rice (Oryza sativa L. spp. Japonica)).
For experiment [4], the target named is SLR1 truncation lacking the polyS/T/V motif, fused with GAL4 BD (rice (Oryza sativa L. spp. Japonica)).
In experiment [5] the target is SLR1 truncation lacking the DELLA motif, fused with GAL4 BD (rice (Oryza sativa L. spp. Japonica)).

In the case of “MOC1 truncation lacking the LHRI motif, fused with GAL4 AD (rice (Oryza sativa L. spp. Japonica)) (domain or fragment)”, the binding entry in experiment [1] was “binds”.

Turning to “MOC1 truncation lacking the LHRII motif, fused with GAL4 AD (rice (Oryza sativa L. spp. Japonica)) (domain or fragment)”, the binding result in experiment [1] is given as “binds”. Same read-out and setting: as for “MOC1 truncation lacking the PFYRE motif, fused with GAL4 AD (rice (Oryza sativa L. spp. Japonica)) (domain or fragment)”, the entry is “binds”. On the same count and under the same terms, then “MOC1 truncation lacking the SAW motif, fused with GAL4 AD (rice (Oryza sativa L. spp. Japonica)) (domain or fragment)”, with “binds”; and “MOC1 truncation lacking the VHIID motif, fused with GAL4 AD (rice (Oryza sativa L. spp. Japonica)) (domain or fragment)”, with “binds”; and “MOC1 with the entire GRAS domain deleted, fused with GAL4 AD (rice (Oryza sativa L. spp. Japonica)) (domain or fragment)”, with “no binding”.

B1: MONOCULM 1 (MOC1), full length, fused with GAL4 AD (protein, UniProt Q84MM9 1-441)
chain: MLRSLHSSSSSDTDNNSGGCKNNGGGGGEAAAAVEGGGDQRAVAAAAPSTRDLLLACADLLQRGDLPAARRAAEIVLAAAASPRGDAADRLAYHFARALALRVDAKAGHGHVVVGGGAARPASSGAYLAFNQIAPFLRFAHLTANQAILEAVDGARRVHILDLDAVHGVQWPPLLQAIAERADPALGPPEVRVTGAGADRDTLLRTGNRLRAFARSIHLPFHFTPLLLSCATTAPHHVAGTSTGAAAAASTAAAATGLEFHPDETLAVNCVMFLHNLAGHDELAAFLKWVKAMSPAVVTIAEREAGGGGGGGDHIDDLPRRVGVAMDHYSAVFEALEATVPPGSRERLAVEQEVLGREIEAAVGPSGGRWWRGIERWGGAARAAGFAARPLSAFAVSQARLLLRLHYPSEGYLVQEARGACFLGWQTRPLLSVSAWQPSSS
Regarding B1, the binding result in experiment [2] is given as “no binding”; in experiment [3], “binds”; in experiment [4], “binds”; in experiment [5], “binds”.
